Measurements taken from PubChem BioAssay AID493014 (National Center for Advancing Translational Sciences (NCATS), 2011).
The list shows a part of the results. Further columns of the screen follow, without active or inactive calls. Compounds called inactive in the main read-out are mostly missing here. The note in brackets gives the kind of curve behind each potency; many fits are weak.

Test: qHTS Assay to Find Inhibitors of Chronic Active B-Cell Receptor Signaling
Conditions: ABC-DLBCL IkBa-CBG/CBR reporter, luminescence ratio (green luciferase fused to IkBa over red control in TMD8 lymphoma cells), 4 h
In short: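 TMD8 human ABC-DLBCL cells with doxycycline-inducible IκBα–green luciferase fusion and unfused red luciferase, in 0.5% FBS medium; compounds up to 46 uM, 4 h at 37C. Green/red luminescence ratio, filter-overlap corrected, fitted to concentration-response curves.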

[1] = measured here: CBR red luminescence, cell number
[2] = measured here: IkBa-CBG green luminescence

SMILES | AC50 [1] | AC50 [2]
Cc1ccc(CN(c2ccc(C(=O)Nc3cccnc3)cc2)S(C)(=O)=O)cc1 | 2.06 µM [rising, partial curve, poor fit] | –
CC1(C)CC(N=C2C([N+](=O)[O-])=CC=C3C2=NC2(CCCCC2)N3O)CC(C)(C)N1 | 35.5 µM [rising, single point] | –
O=c1c2c(-c3ccco3)csc2nc(SCc2cn3cccnc3n2)n1-c1ccccc1 | 1.41 µM [rising, full curve, poor fit] | 15.8 µM [falling, partial curve, poor fit]
Cc1ccc(NC(=O)CSc2nc(N)c3c4c(sc3n2)CSC(C)(C)C4)cc1 | – | 32.6 µM [rising, partial curve, poor fit]
Cc1ccc2c(c1)C(c1ccc(O)cc1)(c1ccc(O)cc1)C(=O)N2C | 35.5 µM [falling, single point] | –
Cc1nonc1-c1ccc2c(c1)OCO2 | 31.6 µM [rising, single point] | –
COc1ccc(C(=O)NN/C(C)=C/C(=O)c2ccccc2)cc1 | 2.51 µM [falling, full curve] | –
CC(C)N(C)Cc1nnnn1CC(=O)N(C)Cc1cccc(Cl)c1 | 15.8 µM [falling, single point] | –
COc1ccccc1CCNCc1ccc(OC)c(OCc2ccccc2)c1 | 29.1 µM [falling, single point] | –
CCc1nnc(NC(=O)CSc2nc(-c3ccc(OC)cc3)ns2)s1 | 20.6 µM [rising, single point] | –
O=C(Nc1ccc(Br)cn1)c1ccc(Cl)s1 | 8.91 µM [falling, partial curve] | –
O=c1c([N+](=O)[O-])c[nH]c2ccccc12 | 29.1 µM [falling, single point] | –
N#Cc1c(NCc2ccccc2)ccnc1NCc1cccnc1 | 25.9 µM [falling, partial curve, poor fit] | –
CCOC(=O)c1oc2cc(OCC(=O)OC)ccc2c(=O)c1-c1ccc(OC)c(OC)c1 | 20 µM [falling, single point] | –
CNc1nc(N)c([N+](=O)[O-])c(NCc2ccccc2)n1 | 11.6 µM [rising, partial curve] | 18.4 µM [falling, partial curve, poor fit]
C=CCOC(=O)C1=C[C@H](c2ccc(Br)cc2)[C@@H](CCCO)[C@H](OCC)O1 | 0.631 µM [falling, full curve, poor fit] | –
O=C(COc1ccc(Br)cc1Cl)Nn1cnnc1 | 10 µM [rising, single point] | –
C/C(=N\Nc1nc2ccccc2[nH]1)c1ccc(Cl)s1 | 20.6 µM [falling, single point] | –
O=c1c2ccccc2nc2n1CCCN2 | 1.78 µM [falling, full curve, poor fit] | –
COc1cc(NS(=O)(=O)c2ccc(N/C=C(\C#N)c3nc4cc(Cl)ccc4o3)cc2)nc(OC)n1 | 2.91 µM [rising, full curve, poor fit] | –
OCCCN=c1cc(-c2ccccc2)oc2ccc(Cl)cc12 | 29.1 µM [falling, single point] | 16.4 µM [rising, partial curve, poor fit]

Reformatted: results already given.
Cc1nonc1-c1ccc2c(c1)OCO2
  AC50 [1]: 31.6 µM [rising, single point]
CCc1nnc(NC(=O)CSc2nc(-c3ccc(OC)cc3)ns2)s1
  AC50 [1]: 20.6 µM [rising, single point]
O=C(Nc1ccc(Br)cn1)c1ccc(Cl)s1
  AC50 [1]: 8.91 µM [falling, partial curve]
C=CCOC(=O)C1=C[C@H](c2ccc(Br)cc2)[C@@H](CCCO)[C@H](OCC)O1
  AC50 [1]: 0.631 µM [falling, full curve, poor fit]

Nothing new here: an excerpt of the list.
SMILES | AC50 [1] | AC50 [2]
CC1(C)CC(N=C2C([N+](=O)[O-])=CC=C3C2=NC2(CCCCC2)N3O)CC(C)(C)N1 | 35.5 µM [rising, single point] | –
O=c1c2c(-c3ccco3)csc2nc(SCc2cn3cccnc3n2)n1-c1ccccc1 | 1.41 µM [rising, full curve, poor fit] | 15.8 µM [falling, partial curve, poor fit]

Following part.

SMILES | AC50 [1] | AC50 [2]
O=C(NCCCCCCOC1=NS(=O)(=O)c2ccccc21)C(=O)Nc1ccccc1 | 11.2 µM [falling, partial curve, poor fit] | –
O=C(Nc1nc2ccccc2[nH]1)c1ccccc1OC(F)F | 5.01 µM [falling, full curve] | –
CCN(CC)S(=O)(=O)c1ccc(Cl)c(C(=O)N2CCc3ccccc32)c1 | 0.00517 µM [rising, full curve, poor fit] | –
CC(CCc1ccccc1)NC(=O)CCCCCNc1nc(=S)[nH]c2ccccc12 (configuration not stated) | 3.16 µM [falling, full curve] | –
CC1CCc2nn(CC(=O)Nc3ccc(F)cc3F)cc2C1 (configuration not stated) | 3.66 µM [rising, partial curve, poor fit] | –
CC(=O)Nc1ccc(Nc2c3ccccc3nc3ccccc23)cc1 | 14.1 µM [falling, partial curve] | –
Cc1cc(C)n2nc(-c3ccsc3-n3c(C)ccc3C)cc2n1 | 5.01 µM [rising, single point] | –
Cc1ccn(CCNC(=O)C2CCC(=O)N(CCc3ccc(Cl)cc3)C2)n1 (configuration not stated) | 12.6 µM [rising, single point] | –
COC1=C/C(=C/c2c(N)n3c(nc2=O)sc2cc(S(C)(=O)=O)ccc23)C=CC1=O | 31.6 µM [falling, single point] | –
COc1ccccc1N(CC(O)COc1c(C)cc(C)cc1C)S(=O)(=O)c1ccccc1 (configuration not stated) | 16.4 µM [falling, single point] | –
Brc1ccc(-c2cn3c(n2)SCC3)cc1 | 1.58 µM [rising, partial curve, poor fit] | –
C/C(=N\Nc1ccc(C(F)(F)F)cn1)c1ccncc1 | 2.82 µM [rising, full curve, poor fit] | –
O=C(NCCc1ccccc1)C(=O)Nc1nccs1 | 2.06 µM [falling, full curve] | –
Cc1cccc(N2C(=O)CN(Cc3sccc3C)C2=S)c1 | 4.11 µM [falling, partial curve, poor fit] | –
COC(=O)c1ccc(CO/N=C/c2ccccc2OC)cc1 | 4.47 µM [falling, partial curve] | –
CC(=O)NC(NC(=S)Nc1ccc(N=Nc2ccccc2)cc1)C(Cl)(Cl)Cl (configuration not stated) | 7.94 µM [falling, partial curve] | –
Cc1cccc(NC(=O)C23CCC(C)(C2Br)C3(C)C)c1 (configuration not stated) | 6.31 µM [falling, single point] | –
CC(=O)Oc1ccc(C(=O)O)cc1OC(C)=O | 35.5 µM [rising, partial curve, poor fit] | –
COc1ccc(NC(=O)/C(C#N)=C/c2ccc(-c3ccc(Cl)c(C(=O)O)c3)o2)cc1 | 1.12 µM [falling, partial curve, poor fit] | –
N#Cc1ccc2c(c1)C[C@]1(c3ccsc3)Oc3c(c(=O)oc4ccccc34)C2O1 | 3.98 µM [falling, single point] | –
COc1cc(C(=O)NCc2ccc(C)cc2)ccc1OC(F)F | 2.91 µM [rising, partial curve, poor fit] | –

SMILES | AC50 [1] | AC50 [2]
CCCOC1CCCN(C(=O)c2ccc(OC3CCN(C(=O)CCOC)CC3)cc2)C1 (configuration not stated) | 35.5 µM [rising, single point] | –
CCN(C(=O)Cc1c(C(=O)O)n(CC)c2ccccc12)c1ccccc1C | 1.58 µM [falling, partial curve] | –
CC(C)C1Cc2c(C#N)c(N)n(C)c(=S)c2CO1 (configuration not stated) | 10 µM [rising, partial curve] | –
Cc1cc(NC(=S)Nc2cccnc2)ccc1Br | 11.2 µM [rising, partial curve] | –
O=C(CSc1nnnn1CCCO)Nc1ccc2c(c1)OCO2 | 35.5 µM [rising, single point] | –
CCCCC(=O)NC(=S)NNC(=O)CC#N | 4.61 µM [falling, full curve, poor fit] | –
Cc1ccccc1-c1ccc(Nc2ccc(C(=O)N3CCOCC3)cc2)nn1 | 11.2 µM [falling, partial curve] | –
O=C(c1cc(-c2cccc(Cl)c2)on1)N1CCc2ccccc2C1 | 2.51 µM [rising, full curve] | –
CCN(CC(=O)Nc1ccc(NC(C)=O)cc1)C(=O)c1cccc2ccccc12 | 29.1 µM [rising, partial curve, poor fit] | –
O=C(Nc1ccc(F)cc1)c1cn(-c2ccccc2)nc1-c1ccncc1 | 0.411 µM [falling, full curve, poor fit] | 14.6 µM [rising, partial curve, poor fit]
Cc1ccc(C(=O)NC2CCN(CC(=O)Nc3ccccc3Cl)CC2)cc1 | 7.94 µM [rising, partial curve, poor fit] | –
Cc1nn(Cc2ccc(C(=O)O)o2)c(C)c1[N+](=O)[O-] | 6.31 µM [rising, single point] | –
Cc1ccccc1-c1nnc(SCC(=O)c2c(N)n(C3CC3)c(=O)[nH]c2=O)o1 | 6.51 µM [rising, single point] | –
O=C(Cn1nc(-c2nn(CC(=O)c3ccccc3)c3[n+]2CCCCC3)[n+]2c1CCCCC2)c1ccccc1 | 0.0891 µM [rising, full curve, poor fit] | –
O=C(Nc1ccccc1)c1ccc(CSc2ccccn2)cc1 | 17.8 µM [falling, single point] | –
O=C(Nc1ccccc1)C1=C[C@@H](c2ccc(Br)cc2)C[C@@H](OCCCCO)O1 | 11.2 µM [falling, partial curve, poor fit] | –
CN(c1ccccc1)S(=O)(=O)c1ccc(C(=O)Nc2nccs2)cc1 | 0.731 µM [falling, partial curve, poor fit] | –
Cc1ccc2cc3c(N)c(C(=O)N4CCOCC4)sc3nc2c1 | 10 µM [falling, partial curve, poor fit] | –
O=C(O)/C=C/C(=O)N(CC1CCCO1)C1CC(=O)N(c2c(Cl)cccc2Cl)C1=O (configuration not stated) | 17.8 µM [falling, partial curve] | –
CCN(CC(=O)NCc1ccc(Cl)cc1)C(=O)Cc1ccccc1[N+](=O)[O-] | 0.398 µM [falling, full curve] | –
COc1ccc2[nH]c3c(=O)n(CCCCC(=O)N4CCCC4)c(=S)[nH]c3c2c1 | 7.08 µM [falling, partial curve, poor fit] | –
